According to the supplement of paper PMC7024190:
Some of the results follow. Single values are uncertain here, since repeats match poorly.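 A first-round screen of about ten thousand compounds sought those raising reporter output, using human embryonic kidney cells briefly transfected with a plasmid carrying a Renilla luciferase gene driven by the HSV-TK promoter.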

Test system: HEK 293FT
Assay: log relative Renilla luciferase luminescence (reporter expression vs reference, reference not stated) (log (base not stated)); higher = higher recombinant reporter expression
Conditions: 10 µM; time after transfection 48 h

Row | SMILES | log
1 | COC(=O)C1=C(C)NC(C)=C(C(=O)OC2CCCN(Cc3ccccc3)C2)C1c1cccc([N+](=O)[O-])c1 (centres undefined) | -1.08
2 | CC(C)(O)c1ccccc1CC[C@@H](SCC1(CC(=O)O)CC1)c1cccc(/C=C/c2ccc3ccc(Cl)cc3n2)c1 | -0.353
3 | CNCC[C@H](Oc1cccc2ccccc12)c1cccs1 [Duloxetine] | 0.196
4 | COC(=O)CCc1ccc(OCC(O)CNC(C)C)cc1 (centres undefined) | -0.0963
5 | CN1C(=O)CC[C@H]1c1cccnc1 [(-)-Cotinine] | -0.0978
6 | C[C@@H]1O[C@@H](OC[C@H]2O[C@@H](Oc3c(-c4ccc(O)c(O)c4)oc4cc(O)cc(O)c4c3=O)[C@H](O)[C@@H](O)[C@@H]2O)[C@H](O)[C@H](O)[C@H]1O | -0.335
7 | CC[C@H](C)C(=O)O[C@H]1C[C@H](O)C=C2C=C[C@H](C)[C@H](CC[C@@H](O)C[C@@H](O)CC(=O)O)[C@H]21 [PRAVASTATIN Sodium] | -0.0499
8 | CCCc1nc2c(C)cc(-c3nc4ccccc4n3C)cc2n1Cc1ccc(-c2ccccc2C(=O)O)cc1 | -0.389
9 | CCC(C)(C)N=C(NC#N)Nc1cccnc1 | -0.0614
10 | CC(C)c1ccc2c(c1)c(SC(C)(C)C)c(CC(C)(C)C(=O)O)n2Cc1ccc(Cl)cc1 | -0.381
11 | OCCN1C[C@H](O)[C@@H](O)[C@H](O)[C@H]1CO | -0.058
12 | CC(Cc1ccccc1)(NC(=O)CN)c1ccccc1 (racemic) | -0.506
13 | Cc1nc2ccccn2c(=O)c1CCN1CCC(C(=O)c2ccc(F)cc2)CC1 | -0.0897
14 | CN1CCCCC1CCN1c2ccccc2Sc2ccc([S+](C)[O-])cc21 (centres undefined) [Mesoridazine] | 0.208
15 | Cc1c(OCC(F)(F)F)ccnc1C[S+]([O-])c1nc2ccccc2[nH]1 (centres undefined) | -0.0669
16 | CC(C)c1nc(CN(C)C(=O)N[C@H](C(=O)N[C@@H](Cc2ccccc2)C[C@H](O)[C@H](Cc2ccccc2)NC(=O)OCc2cncs2)C(C)C)cs1 | -0.478
17 | O=c1[nH]cnc2c1ncn2[C@H]1CC[C@@H](CO)O1 | -0.169
18 | CN(C)CC/C=C1/c2ccccc2COc2ccc(CC(=O)O)cc21 | 0.146
19 | CCCCc1oc2ccccc2c1C(=O)c1cc(I)c(OCCN(CC)CC)c(I)c1 | 0.0675
20 | C[C@@H]1C[C@H]2[C@@H]3CCC4=CC(=O)C=C[C@]4(C)[C@@]3(F)[C@@H](O)C[C@]2(C)[C@H]1C(=O)CO | -0.0368

Taken from above.
For log, CCCCc1oc2ccccc2c1C(=O)c1cc(I)c(OCCN(CC)CC)c(I)c1 shows 0.0675
For log, CC(C)c1ccc2c(c1)c(SC(C)(C)C)c(CC(C)(C)C(=O)O)n2Cc1ccc(Cl)cc1 shows -0.381
For log, CC(Cc1ccccc1)(NC(=O)CN)c1ccccc1 (racemic) shows -0.506

Following part:

Row | SMILES | log
21 | CC[C@]1(O)C[C@H]2CN(CCc3c([nH]c4ccccc34)[C@@](C(=O)OC)(c3cc4c(cc3OC)N(C=O)[C@H]3[C@@](O)(C(=O)OC)[C@H](OC(C)=O)[C@]5(CC)C=CCN6CC[C@]43[C@@H]65)C2)C1 | -0.0272
22 | Cc1ccc(O)c([C@H](CCN(C(C)C)C(C)C)c2ccccc2)c1 | -0.000179
23 | C[C@H]1COc2c(N3CCN(C)CC3)c(F)cc3c(=O)c(C(=O)O)cn1c23 | 0.0139
24 | Cn1nnc2c(C(N)=O)ncn2c1=O | 0.0308
25 | Cc1[nH]c(=O)c(C#N)cc1-c1ccncc1 | -0.0526
26 | CCCCc1nc(Cl)c(CO)n1Cc1ccc(-c2ccccc2-c2nnn[nH]2)cc1 [LOSARTAN Potassium] | 0.054
27 | CCC(=O)NS(=O)(=O)c1ccc(-c2c(-c3ccccc3)noc2C)cc1 | 0.172
28 | COc1cccc2c1C(=O)c1c(O)c3c(c(O)c1C2=O)C[C@@](O)(C(=O)CO)C[C@@H]3O[C@H]1C[C@H](N)[C@H](O)[C@H](C)O1 | -1.4
29 | O=C(O)c1cc(/N=N/c2ccc(S(=O)(=O)Nc3ccccn3)cc2)ccc1O | -0.302
30 | CSc1nc2cc(Cl)c(Oc3cccc(Cl)c3Cl)cc2[nH]1 | -0.0704
31 | O=c1cnn([C@@H]2O[C@H](CO)[C@@H](O)[C@H]2O)c(=O)[nH]1 | 0.103
32 | Clc1ccc2c(c1)CCc1cccnc1C2=C1CCNCC1 | 0.0247
33 | Cc1cccc(Nc2ccncc2S(=O)(=O)NC(=O)NC(C)C)c1 | -0.146
34 | O=C1c2cccc3c2[C@H](CCC3)CN1[C@@H]1CN2CCC1CC2 | 0.261
35 | OCCOCCN1CCN(C2=Nc3ccccc3Sc3ccccc32)CC1 | -0.195
36 | CN1CCN(C2=Nc3ccccc3Oc3ccc(Cl)cc32)CC1 | 0.241
37 | CNCC[C@@H](Oc1ccccc1C)c1ccccc1 | 0.0927
38 | C[C@]12C=CC(=O)C=C1CC[C@@H]1[C@@H]2[C@@H](O)C[C@@]2(C)[C@H]1CC[C@]2(O)C(=O)COC(=O)CCC(=O)O | -0.06
39 | C=CCc1ccc(O)c(-c2ccc(O)c(CC=C)c2)c1 | -0.0934
